Results are given in words; binding and its absence hold for the method and conditions named. Binding seen in cells or lysates may run through a third protein. Some results given as binding are weak or reduced against the parent protein; the word gives no strength.
What was measured:
[1] = biological target: SMN (human (endogenous in HEK293)) (UniProt Q16637); assay: co-IP
[2] = biological target: PRMT5 (human (endogenous in HEK293)) (UniProt O14744); assay: co-IP

The chains behind the UniProt entries cited, without tags or fusion partners.
UniProt Q16637: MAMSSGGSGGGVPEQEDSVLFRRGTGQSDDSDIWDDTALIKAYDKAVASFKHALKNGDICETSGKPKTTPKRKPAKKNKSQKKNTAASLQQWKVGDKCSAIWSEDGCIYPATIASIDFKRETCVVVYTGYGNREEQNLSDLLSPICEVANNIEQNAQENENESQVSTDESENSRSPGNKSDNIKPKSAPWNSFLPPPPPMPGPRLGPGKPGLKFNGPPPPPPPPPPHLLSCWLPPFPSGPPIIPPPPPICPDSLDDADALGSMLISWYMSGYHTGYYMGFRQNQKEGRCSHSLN
UniProt O14744: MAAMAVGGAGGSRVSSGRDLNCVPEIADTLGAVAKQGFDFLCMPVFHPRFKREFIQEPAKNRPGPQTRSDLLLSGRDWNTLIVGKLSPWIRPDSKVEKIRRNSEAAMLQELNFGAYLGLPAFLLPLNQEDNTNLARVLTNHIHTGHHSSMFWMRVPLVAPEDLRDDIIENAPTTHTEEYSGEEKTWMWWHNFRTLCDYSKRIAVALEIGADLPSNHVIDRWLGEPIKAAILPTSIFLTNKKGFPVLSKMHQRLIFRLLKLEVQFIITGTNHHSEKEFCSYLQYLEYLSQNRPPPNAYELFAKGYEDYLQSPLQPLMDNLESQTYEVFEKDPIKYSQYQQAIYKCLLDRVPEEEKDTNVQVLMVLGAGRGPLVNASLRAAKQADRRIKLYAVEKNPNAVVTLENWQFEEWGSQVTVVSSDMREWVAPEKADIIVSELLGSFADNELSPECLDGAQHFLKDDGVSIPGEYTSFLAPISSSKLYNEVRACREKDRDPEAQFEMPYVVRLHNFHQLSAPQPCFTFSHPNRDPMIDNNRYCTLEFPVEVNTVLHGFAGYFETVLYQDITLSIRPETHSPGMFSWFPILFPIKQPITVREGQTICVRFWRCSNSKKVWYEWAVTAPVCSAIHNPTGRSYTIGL

B1: XRN2 (protein, UniProt Q9H0D6 1-950)
chain: MGVPAFFRWLSRKYPSIIVNCVEEKPKECNGVKIPVDASKPNPNDVEFDNLYLDMNGIIHPCTHPEDKPAPKNEDEMMVAIFEYIDRLFSIVRPRRLLYMAIDGVAPRAKMNQQRSRRFRASKEGMEAAVEKQRVREEILAKGGFLPPEEIKERFDSNCITPGTEFMDNLAKCLRYYIADRLNNDPGWKNLTVILSDASAPGEGEHKIMDYIRRQRAQPNHDPNTHHCLCGADADLIMLGLATHEPNFTIIREEFKPNKPKPCGLCNQFGHEVKDCEGLPREKKGKHDELADSLPCAEGEFIFLRLNVLREYLERELTMASLPFTFDVERSIDDWVFMCFFVGNDFLPHLPSLEIRENAIDRLVNIYKNVVHKTGGYLTESGYVNLQRVQMIMLAVGEVEDSIFKKRKDDEDSFRRRQKEKRKRMKRDQPAFTPSGILTPHALGSRNSPGSQVASNPRQAAYEMRMQNNSSPSISPNTSFTSDGSPSPLGGIKRKAEDSDSEPEPEDNVRLWEAGWKQRYYKNKFDVDAADEKFRRKVVQSYVEGLCWVLRYYYQGCASWKWYYPFHYAPFASDFEGIADMPSDFEKGTKPFKPLEQLMGVFPAASGNFLPPSWRKLMSDPDSSIIDFYPEDFAIDLNGKKYAWQGVALLPFVDERRLRAALEEVYPDLTPEETRRNSLGGDVLFVGKHHPLHDFILELYQTGSTEPVEVPPELCHGIQGKFSLDEEAILPDQIVCSPVPMLRDLTQNTVVSINFKDPQFAEDYIFKAVMLPGARKPAAVLKPSDWEKSSNGRQWKPQLGFNRDRRPVHLDQAAFRTLGHVMPRGSGTGIYSNAAPPPVTYQGNLYRPLLRGQAQIPKLMSNMRPQDSWRGPPPLFQQQRFDRGVGAEPLLPWNRMLQTQNAAFQPNQYQMLAGPGGYPPRRDDRGGRQGYPREGRKYPLPPPSGRYNWN
binding [1]: binds | binding [2]: binds

From publication doi:10.1101/788778
